Assay results: publication PMC8933699
Results are given in words; binding and its absence hold for the method and conditions named. Binding seen in cells or lysates may run through a third protein. These calls come from enrichment with a bait or labelling near it, and not all partners need be listed.

By UniProt entry, the sequences of proteins in these tests, tags left out.
UniProt Q8TB45: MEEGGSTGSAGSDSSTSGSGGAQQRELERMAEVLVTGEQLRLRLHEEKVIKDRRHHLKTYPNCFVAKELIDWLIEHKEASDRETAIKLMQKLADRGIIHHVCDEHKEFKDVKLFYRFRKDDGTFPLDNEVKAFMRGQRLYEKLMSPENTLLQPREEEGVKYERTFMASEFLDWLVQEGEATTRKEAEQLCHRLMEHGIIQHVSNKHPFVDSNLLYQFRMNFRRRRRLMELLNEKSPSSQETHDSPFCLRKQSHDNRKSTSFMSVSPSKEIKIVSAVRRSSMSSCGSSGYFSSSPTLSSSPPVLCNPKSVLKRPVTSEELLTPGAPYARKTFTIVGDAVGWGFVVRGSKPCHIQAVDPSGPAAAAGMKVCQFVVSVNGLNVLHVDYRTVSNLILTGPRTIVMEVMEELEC
UniProt Q93009: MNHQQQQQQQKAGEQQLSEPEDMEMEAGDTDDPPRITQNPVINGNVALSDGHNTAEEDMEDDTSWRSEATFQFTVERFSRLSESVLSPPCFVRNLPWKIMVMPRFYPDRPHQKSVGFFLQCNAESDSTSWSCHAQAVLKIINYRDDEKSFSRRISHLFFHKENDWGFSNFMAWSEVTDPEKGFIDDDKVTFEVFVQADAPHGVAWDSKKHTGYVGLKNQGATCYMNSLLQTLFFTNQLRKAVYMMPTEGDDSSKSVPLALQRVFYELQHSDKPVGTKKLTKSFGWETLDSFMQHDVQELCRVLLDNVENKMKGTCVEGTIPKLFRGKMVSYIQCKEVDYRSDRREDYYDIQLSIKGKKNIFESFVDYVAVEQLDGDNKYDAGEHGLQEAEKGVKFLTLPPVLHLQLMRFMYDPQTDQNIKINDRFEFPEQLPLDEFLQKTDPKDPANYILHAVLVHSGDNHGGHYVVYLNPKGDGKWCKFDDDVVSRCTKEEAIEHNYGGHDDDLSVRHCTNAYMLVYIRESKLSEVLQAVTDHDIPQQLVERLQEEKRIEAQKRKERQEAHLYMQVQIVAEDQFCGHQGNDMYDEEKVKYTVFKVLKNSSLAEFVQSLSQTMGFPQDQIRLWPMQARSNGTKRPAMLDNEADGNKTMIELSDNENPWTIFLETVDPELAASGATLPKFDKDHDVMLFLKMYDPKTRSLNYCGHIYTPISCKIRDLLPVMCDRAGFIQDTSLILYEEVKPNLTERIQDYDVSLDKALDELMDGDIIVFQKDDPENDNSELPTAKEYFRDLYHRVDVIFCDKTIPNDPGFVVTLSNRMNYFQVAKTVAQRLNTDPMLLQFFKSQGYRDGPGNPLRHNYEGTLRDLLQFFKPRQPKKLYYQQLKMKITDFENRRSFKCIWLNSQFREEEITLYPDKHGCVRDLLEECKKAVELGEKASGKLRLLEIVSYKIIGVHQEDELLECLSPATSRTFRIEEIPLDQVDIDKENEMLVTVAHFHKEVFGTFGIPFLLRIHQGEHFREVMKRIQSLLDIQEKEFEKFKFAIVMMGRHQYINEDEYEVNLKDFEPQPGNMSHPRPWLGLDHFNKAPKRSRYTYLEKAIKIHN

Molecular target: FLAG-tagged WT DEPTOR (Disheveled, Egl-10, and Pleckstrin domain-containing mechanistic target of rapamycin-interacting protein) (human) (UniProt Q8TB45)
Experiment: affinity purification with mass spectrometry; tagged DEPTOR immunoprecipitated from MM cells after 4 h with MG-132 alone or drug 3g (1 uM) + MG-132; IgG as control for nonspecific binders; in-solution digestion, label-free LC-MS/MS

ubiquitin-specific protease 7 (USP-7) deubiquitinase (from UniProt Q93009 1-1102) (enzyme)
binding: binds
